Reference: the supplement of paper PMC6411743
± gives the standard deviation of the averaged measurements. Some of the results follow.

Chains of the proteins cited; added tags and fusions are not shown. Lines headed by an entry give the natural chain unless they say otherwise; changes in a name come on top.
UniProt Q8WXI9: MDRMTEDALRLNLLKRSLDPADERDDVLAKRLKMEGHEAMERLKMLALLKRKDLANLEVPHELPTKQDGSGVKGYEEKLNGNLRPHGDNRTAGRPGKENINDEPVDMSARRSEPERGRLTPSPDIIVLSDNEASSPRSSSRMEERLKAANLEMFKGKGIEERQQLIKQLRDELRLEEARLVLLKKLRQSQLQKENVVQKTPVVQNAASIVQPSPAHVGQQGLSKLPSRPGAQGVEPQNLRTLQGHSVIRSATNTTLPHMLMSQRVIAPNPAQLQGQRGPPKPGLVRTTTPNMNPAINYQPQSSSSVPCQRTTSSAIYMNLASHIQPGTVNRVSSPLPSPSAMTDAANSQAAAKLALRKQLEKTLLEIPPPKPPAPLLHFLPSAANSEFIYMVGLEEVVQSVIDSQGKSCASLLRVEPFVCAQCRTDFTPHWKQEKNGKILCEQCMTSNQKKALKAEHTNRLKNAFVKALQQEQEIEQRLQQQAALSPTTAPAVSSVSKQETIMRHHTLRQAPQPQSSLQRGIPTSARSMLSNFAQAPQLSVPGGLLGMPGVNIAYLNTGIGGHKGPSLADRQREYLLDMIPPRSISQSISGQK
UniProt Q96EZ8, whole entry: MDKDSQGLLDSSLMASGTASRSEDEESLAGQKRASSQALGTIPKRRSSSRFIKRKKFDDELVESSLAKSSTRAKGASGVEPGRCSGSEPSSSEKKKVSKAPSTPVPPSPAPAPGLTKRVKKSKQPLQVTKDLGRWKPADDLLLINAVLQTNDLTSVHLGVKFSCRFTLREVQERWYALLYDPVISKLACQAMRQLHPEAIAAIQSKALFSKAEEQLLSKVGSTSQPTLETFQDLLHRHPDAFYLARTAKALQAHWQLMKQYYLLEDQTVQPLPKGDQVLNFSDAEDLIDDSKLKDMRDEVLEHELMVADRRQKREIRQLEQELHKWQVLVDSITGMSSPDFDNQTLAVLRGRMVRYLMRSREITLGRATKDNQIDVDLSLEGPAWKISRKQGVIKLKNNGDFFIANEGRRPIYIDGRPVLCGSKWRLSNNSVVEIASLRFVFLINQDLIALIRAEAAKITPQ
UniProt Q96CX2: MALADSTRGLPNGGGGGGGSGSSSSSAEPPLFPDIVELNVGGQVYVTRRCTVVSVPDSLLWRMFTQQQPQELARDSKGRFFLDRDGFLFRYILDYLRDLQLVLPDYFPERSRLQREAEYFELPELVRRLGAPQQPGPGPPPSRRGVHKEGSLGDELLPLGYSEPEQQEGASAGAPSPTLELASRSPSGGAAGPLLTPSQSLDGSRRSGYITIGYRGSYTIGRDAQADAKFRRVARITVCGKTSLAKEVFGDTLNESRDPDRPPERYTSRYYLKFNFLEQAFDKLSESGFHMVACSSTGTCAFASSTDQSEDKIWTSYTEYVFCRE
UniProt Q92973: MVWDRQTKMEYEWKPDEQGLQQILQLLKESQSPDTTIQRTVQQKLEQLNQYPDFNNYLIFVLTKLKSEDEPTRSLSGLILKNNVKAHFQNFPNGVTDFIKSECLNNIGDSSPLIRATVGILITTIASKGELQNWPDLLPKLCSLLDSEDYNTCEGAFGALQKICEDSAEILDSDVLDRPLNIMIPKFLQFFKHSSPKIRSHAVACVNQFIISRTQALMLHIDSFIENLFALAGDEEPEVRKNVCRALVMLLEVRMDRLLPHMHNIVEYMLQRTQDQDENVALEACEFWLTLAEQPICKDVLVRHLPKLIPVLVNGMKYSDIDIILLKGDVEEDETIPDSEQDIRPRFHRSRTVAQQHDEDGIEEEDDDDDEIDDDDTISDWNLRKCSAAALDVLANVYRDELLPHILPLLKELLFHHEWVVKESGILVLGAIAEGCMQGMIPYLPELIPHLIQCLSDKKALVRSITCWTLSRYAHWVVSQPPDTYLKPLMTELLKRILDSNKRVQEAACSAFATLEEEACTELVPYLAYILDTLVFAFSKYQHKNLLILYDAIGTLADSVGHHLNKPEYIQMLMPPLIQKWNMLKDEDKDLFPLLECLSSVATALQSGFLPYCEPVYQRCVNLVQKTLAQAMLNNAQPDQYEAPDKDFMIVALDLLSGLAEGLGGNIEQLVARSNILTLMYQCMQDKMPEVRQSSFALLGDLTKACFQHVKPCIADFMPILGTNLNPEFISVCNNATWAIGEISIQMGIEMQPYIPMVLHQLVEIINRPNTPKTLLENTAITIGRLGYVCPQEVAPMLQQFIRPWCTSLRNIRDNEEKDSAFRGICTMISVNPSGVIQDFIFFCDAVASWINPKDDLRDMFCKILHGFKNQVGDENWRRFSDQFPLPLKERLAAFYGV
UniProt Q8WUH2: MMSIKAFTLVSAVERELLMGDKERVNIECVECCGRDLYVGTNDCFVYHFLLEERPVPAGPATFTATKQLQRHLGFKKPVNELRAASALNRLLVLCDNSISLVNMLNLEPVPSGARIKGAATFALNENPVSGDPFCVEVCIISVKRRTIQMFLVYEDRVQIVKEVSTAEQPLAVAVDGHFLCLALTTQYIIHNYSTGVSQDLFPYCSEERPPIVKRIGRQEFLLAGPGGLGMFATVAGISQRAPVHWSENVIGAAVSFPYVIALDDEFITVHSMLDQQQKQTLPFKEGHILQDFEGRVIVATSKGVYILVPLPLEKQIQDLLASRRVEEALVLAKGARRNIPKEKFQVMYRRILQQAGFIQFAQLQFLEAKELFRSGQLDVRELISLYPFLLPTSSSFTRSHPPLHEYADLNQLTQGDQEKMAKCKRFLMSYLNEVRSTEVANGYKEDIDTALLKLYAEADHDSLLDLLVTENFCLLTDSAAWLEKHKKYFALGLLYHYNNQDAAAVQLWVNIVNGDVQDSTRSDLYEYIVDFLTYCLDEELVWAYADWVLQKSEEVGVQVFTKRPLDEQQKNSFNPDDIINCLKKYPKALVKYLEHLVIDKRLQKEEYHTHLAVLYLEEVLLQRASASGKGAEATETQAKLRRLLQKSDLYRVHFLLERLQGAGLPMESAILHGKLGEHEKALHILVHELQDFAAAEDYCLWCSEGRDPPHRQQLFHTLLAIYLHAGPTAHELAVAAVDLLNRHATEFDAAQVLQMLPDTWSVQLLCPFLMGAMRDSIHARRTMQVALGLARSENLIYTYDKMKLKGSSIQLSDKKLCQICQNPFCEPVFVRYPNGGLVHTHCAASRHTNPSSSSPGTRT

Compound: Nc1nc2c(ncn2[C@@H]2O[C@H](COP(=O)(O)OP(=O)(O)OP(=O)(O)O)[C@@H](O)[C@H]2O)c(=O)[nH]1 [guanosine triphosphate]
Assay: NP40-soluble protein abundance relative to vehicle (solubility fold change) (ratio); higher = more soluble protein in presence of GTP
Method: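 Solubility proteome profiling in Jurkat crude lysate. Lysate was treated with Mg-GTP (0.1-10 mM) for 10 min at room temperature and 3 min at 37 °C, then solubilised with 0.8% NP40 and benzonase, followed by ultracentrifugation. Proteins were quantified by TMT10 LC-MS/MS; the value is the NP40-soluble abundance relative to the NP40-processed vehicle, from 3 independent experiments.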

| Target | NP40-soluble protein abundance (concentration: 0.1mM) | NP40-soluble protein abundance (concentration: 0.5mM) | NP40-soluble protein abundance (concentration: 1mM) | NP40-soluble protein abundance (concentration: 2mM) | NP40-soluble protein abundance (concentration: 4mM) | NP40-soluble protein abundance (concentration: 6mM) | NP40-soluble protein abundance (concentration: 8mM) | NP40-soluble protein abundance (concentration: 10mM) |
| --- | --- | --- | --- | --- | --- | --- | --- | --- |
| GATAD2B (UniProt Q8WXI9) | 0.999 ± 0.062 | 1 ± 0.045 | 1.17 ± 0.12 | 1.19 ± 0.088 | 1.21 ± 0.16 | 1.24 ± 0.13 | 1.29 ± 0.18 | 1.35 ± 0.23 |
| UniProt Q96EZ8 and related entries | 1.12 ± 0.05 | 1.17 ± 0.13 | 1.17 ± 0.13 | 1.23 ± 0.069 | 1.3 ± 0.16 | 1.36 ± 0.13 | 1.39 ± 0.2 | 1.37 ± 0.17 |
| KCTD12 (UniProt Q96CX2) | 1.07 ± 0.047 | 1.05 ± 0.046 | 0.974 ± 0.017 | 1.02 ± 0.03 | 0.983 ± 0.055 | 0.971 ± 0.048 | 0.95 ± 0.062 | 0.955 ± 0.052 |
| UniProt Q92973 and related entries | 0.979 ± 0.05 | 0.949 ± 0.039 | 0.883 ± 0.067 | 0.936 ± 0.053 | 0.914 ± 0.037 | 0.865 ± 0.05 | 0.827 ± 0.07 | 0.8781 ± 0.0075 |
| TGFBRAP1 (UniProt Q8WUH2) | 1.17 ± 0.16 | 1.12 ± 0.1 | 1.12 ± 0.12 | 1.13 ± 0.13 | 1.07 ± 0.1 | 1.07 ± 0.12 | 1.03 ± 0.19 | 1.07 ± 0.09 |
